PubChem BioAssay AID602196 – INSERM, 2012
Purpose: 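Modifiers of cisplatin sensitivity in A549 cells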. Cell system: human A549 lung cancer cells. Knock-down reagent: siRNA pair against human genes. Duration: 48 h transfection before cisplatin; time from cisplatin to read-out not stated. Treatment: cisplatin at a dose killing half of control-siRNA cells; exact dose and duration not given. Read-out: 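Shift in cisplatin death relative to control siRNA, from -50 (all cells die) to +50 (no cells die); siRNAs harmful on their own scored 0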. Reading the numbers: two-siRNA summed score (-2 to +2): higher = both siRNAs protect from cisplatin killing; -2 means both sensitise. Call rule: 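Each siRNA scores 0 if harmful alone by LDH or WST-1, otherwise +1 if it reduces and -1 if it increases cisplatin killing; a gene is active when both siRNAs agree (sum +2 or -2)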. Meaning of the calls: active = both siRNAs shift cisplatin killing the same way; inactive = no consistent shift, or siRNA harmful alone.
In all, the deposit lists about 23,000 reagents; below is an unselected part. 455 of all reagents (2%) were called active. 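Active includes both protection and sensitisation; some change values fall well beyond the stated -50 to +50 range.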 Reagents against one gene are numbered here. Further read-outs or replicates are left out here. Not stated in the record: the amount of reagent.

For CHCHD1 (GeneID 118487) the deposit lists two-siRNA summed score (-2 to +2) = 0; inactive.
For PHLDA1 (GeneID 22822), the entry reads two-siRNA summed score (-2 to +2) = 0; inactive.
Against PSMA3-AS1 (GeneID 379025) the deposit lists two-siRNA summed score (-2 to +2) = 0; inactive.
Silencing of HID1 (GeneID 283987) resulted in: two-siRNA summed score (-2 to +2) = 0; inactive.
With knock-down of LINC00173 (GeneID 100287569) the results were two-siRNA summed score (-2 to +2) = 0; inactive.
Silencing of OR2G3 (GeneID 81469) came out at: two-siRNA summed score (-2 to +2) = 0; inactive.
Knock-down of CPLANE1 (GeneID 65250) resulted in: two-siRNA summed score (-2 to +2) = 0; inactive.
Against LOC441019, the entry reads two-siRNA summed score (-2 to +2) = 0; inactive.
OR4C12 (GeneID 283093) scored two-siRNA summed score (-2 to +2) = 0; inactive.
Against LOC389305, the entry reads two-siRNA summed score (-2 to +2) = 0; inactive.
Knock-down of WNT2B (GeneID 7482) gave: two-siRNA summed score (-2 to +2) = 0; inactive.
GYS1 (GeneID 2997) gave two-siRNA summed score (-2 to +2) = 1; inactive.
Knock-down of LOC441647 resulted in: two-siRNA summed score (-2 to +2) = 1; inactive.
C7orf33 (GeneID 202865) gave two-siRNA summed score (-2 to +2) = -1; inactive.
For MARCHF6 (GeneID 10299), the entry reads two-siRNA summed score (-2 to +2) = 0; inactive.
LRIT1 (GeneID 26103) showed two-siRNA summed score (-2 to +2) = 0; inactive.
LOC342931 showed two-siRNA summed score (-2 to +2) = 0; inactive.
TET2 (GeneID 54790) #1 gave two-siRNA summed score (-2 to +2) = 0; inactive.
TET2 (GeneID 54790) #2 gave two-siRNA summed score (-2 to +2) = 0; inactive.
For GDF5 (GeneID 8200), the entry reads two-siRNA summed score (-2 to +2) = -1; inactive.
For MARS2 (GeneID 92935) the deposit lists two-siRNA summed score (-2 to +2) = 1; inactive.

No new results follow: an excerpt of the list.
HID1 (GeneID 283987) | two-siRNA summed score (-2 to +2) = 0; call = inactive
LINC00173 (GeneID 100287569) | two-siRNA summed score (-2 to +2) = 0; call = inactive
OR2G3 (GeneID 81469) | two-siRNA summed score (-2 to +2) = 0; call = inactive
CPLANE1 (GeneID 65250) | two-siRNA summed score (-2 to +2) = 0; call = inactive
LOC441019 | two-siRNA summed score (-2 to +2) = 0; call = inactive
OR4C12 (GeneID 283093) | two-siRNA summed score (-2 to +2) = 0; call = inactive

Further results:
ARHGAP29 (GeneID 9411) gave two-siRNA summed score (-2 to +2) = 0; inactive.
With knock-down of CKB (GeneID 1152) the results were two-siRNA summed score (-2 to +2) = 0; inactive.
Depletion of KLK7 (GeneID 5650) resulted in: two-siRNA summed score (-2 to +2) = 0; inactive.
Depletion of MICAL2 (GeneID 9645) #1 resulted in: two-siRNA summed score (-2 to +2) = 0; inactive.
Against MICAL2 (GeneID 9645) #2, the entry reads two-siRNA summed score (-2 to +2) = 0; inactive.
Against OPRPN (GeneID 58503), the values are two-siRNA summed score (-2 to +2) = 0; inactive.
After knock-down of PAEP (GeneID 5047), the record shows two-siRNA summed score (-2 to +2) = 0; inactive.
Depletion of CDHR3 (GeneID 222256) resulted in: two-siRNA summed score (-2 to +2) = 0; inactive.
With knock-down of LINC03163 (GeneID 339593), the record shows two-siRNA summed score (-2 to +2) = 1; inactive.
SLC49A4 (GeneID 84925) showed two-siRNA summed score (-2 to +2) = 0; inactive.
Against LOC391733 the deposit lists two-siRNA summed score (-2 to +2) = 0; inactive.
For RIC8A (GeneID 60626), the values are two-siRNA summed score (-2 to +2) = 0; inactive.
Against KRT79 (GeneID 338785), the values are two-siRNA summed score (-2 to +2) = 0; inactive.
Knock-down of OTULIN (GeneID 90268) came out at: two-siRNA summed score (-2 to +2) = 0; inactive.
Against LOC442721, the entry reads two-siRNA summed score (-2 to +2) = 1; inactive.
MCC (GeneID 4163) scored two-siRNA summed score (-2 to +2) = 0; inactive.
MYOG (GeneID 4656) scored two-siRNA summed score (-2 to +2) = -1; inactive.
Against CDH24 (GeneID 64403) the deposit lists two-siRNA summed score (-2 to +2) = 0; inactive.
PRDX2 (GeneID 7001) gave two-siRNA summed score (-2 to +2) = -1; inactive.
